# At least one compound was matched to its structure with a doubt left.
# Tested on: testosterone (TE) and phenylephrine (PE) induced benign prostate hyperplasia in rats
# Assay: Testosterone (TE) and phenylephrine (PE) induced benign prostate hyperplasia in rats, intra-prostate injection (Example 1)
# Type: in vivo, Male Wistar rats
# Conditions: histology
# Experimental: BPH is a true hyperplastic process. Histologic studies have documented an increase in cell number. A study was conducted, therefore, to determine the effects of test compounds and vehicle on testosterone (TE) and phenylephrine (PE) induced benign prostate hyperplasia in rats. Male Wistar rats were induced with testosterone (2 mg/kg) plus phenylephrine (5 mg/kg) administered daily by subcutaneous injection on days 5 through 32. Vehicle or test compounds (all at 1% w/w), nintedanib, sunitinib, lenvatinib, and 0.5% doxazosin mesylate, were administered by intra-prostate injection (0.4 ml) in dorsolateral and ventral lobes on days 1 and 18. Animals were euthanized on day 32. Body weights were determined and prostate glands were harvested. The experimental design is outlined in Table 1.
# At necropsy, the ventral and dorsolateral lobes of the prostate were separated and then cut into halves. The left halves were fixed in 10% neutral buffered formalin, sectioned, and stained with Hematoxylin and Eosin (H&E). Histological changes in these sections were scored. Epithelial hyperplasia was recognized as an increase in epithelial cells within normal-appearing gland profiles, primarily reflected by stratification of epithelial cells and increased presence of epithelial tufting and papillary projections. A severity grade of 0 (not present) through 5 (severe) was assigned to each sample.
smiles,measurement,value
CCN(CC)CCNC(=O)c1c(C)[nH]c(/C=C2\C(=O)Nc3ccc(F)cc32)c1C [sunitinib],glandular hyperplasia as compared to the untreated TE/PE induced prostates,demonstrated reduction of glandular hyperplasia

# Reference: patent US11376252B2, “Multikinase inhibitors and uses in prostatic hyperplasia and urinary track diseases” (AIVIVA BIOPHARMA, INC., priority 2017, dated 2022)
